Test [1] deals with DOT1-like histone H3K79 methyltransferase (DOT1L) in 293 T cells (human (endogenous in 293 T)) (UniProt Q8TEK3). Briefly: co-IP; 293 T cells transfected with HA-tagged SALL4 constructs or empty vector; anti-DOT1L antibody (Bethyl) on Dynabeads Protein G; Western blot with anti-HA. For orientation: A western blot detects proteins with antibodies after separation by electrophoresis.

Amino acid sequences for entries named in this document (tags omitted).
UniProt Q8TEK3: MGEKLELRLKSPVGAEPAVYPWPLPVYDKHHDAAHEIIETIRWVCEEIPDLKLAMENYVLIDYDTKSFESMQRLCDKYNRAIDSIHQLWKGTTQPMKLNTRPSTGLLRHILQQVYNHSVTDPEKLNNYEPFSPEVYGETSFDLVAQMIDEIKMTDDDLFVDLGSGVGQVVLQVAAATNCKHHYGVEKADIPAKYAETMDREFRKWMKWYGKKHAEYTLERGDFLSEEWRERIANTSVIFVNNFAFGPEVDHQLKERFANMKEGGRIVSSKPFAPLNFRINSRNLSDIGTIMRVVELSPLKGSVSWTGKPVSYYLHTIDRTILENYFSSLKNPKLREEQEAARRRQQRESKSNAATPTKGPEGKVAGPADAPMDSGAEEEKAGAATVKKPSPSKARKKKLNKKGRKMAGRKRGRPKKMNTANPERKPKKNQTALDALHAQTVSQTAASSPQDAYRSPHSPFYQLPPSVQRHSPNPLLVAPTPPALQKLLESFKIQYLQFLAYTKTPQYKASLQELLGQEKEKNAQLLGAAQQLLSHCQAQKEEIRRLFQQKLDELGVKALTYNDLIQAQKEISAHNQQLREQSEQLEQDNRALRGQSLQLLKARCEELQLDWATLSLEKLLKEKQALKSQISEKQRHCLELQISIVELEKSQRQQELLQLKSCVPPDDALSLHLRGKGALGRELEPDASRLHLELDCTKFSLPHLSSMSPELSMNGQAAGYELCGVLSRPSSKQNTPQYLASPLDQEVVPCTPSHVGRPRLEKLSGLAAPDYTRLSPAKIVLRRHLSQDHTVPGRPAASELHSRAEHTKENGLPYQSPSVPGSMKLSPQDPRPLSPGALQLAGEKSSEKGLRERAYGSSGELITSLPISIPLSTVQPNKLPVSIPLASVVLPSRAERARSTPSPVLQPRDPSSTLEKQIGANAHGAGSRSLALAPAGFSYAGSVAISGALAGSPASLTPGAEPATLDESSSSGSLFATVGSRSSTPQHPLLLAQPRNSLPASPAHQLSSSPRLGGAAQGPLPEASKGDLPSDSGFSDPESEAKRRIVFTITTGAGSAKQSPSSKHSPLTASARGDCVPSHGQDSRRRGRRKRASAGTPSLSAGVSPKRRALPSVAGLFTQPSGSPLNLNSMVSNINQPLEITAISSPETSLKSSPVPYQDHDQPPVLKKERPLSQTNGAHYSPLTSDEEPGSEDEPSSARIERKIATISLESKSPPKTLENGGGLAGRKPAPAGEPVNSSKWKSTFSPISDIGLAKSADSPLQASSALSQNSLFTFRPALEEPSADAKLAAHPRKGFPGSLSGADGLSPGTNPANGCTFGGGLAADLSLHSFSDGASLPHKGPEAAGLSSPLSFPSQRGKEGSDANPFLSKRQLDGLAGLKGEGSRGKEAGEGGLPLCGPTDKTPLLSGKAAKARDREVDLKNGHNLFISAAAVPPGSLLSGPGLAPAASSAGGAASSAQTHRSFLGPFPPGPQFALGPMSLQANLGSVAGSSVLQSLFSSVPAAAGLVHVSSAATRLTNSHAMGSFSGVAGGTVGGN
UniProt Q8BX22: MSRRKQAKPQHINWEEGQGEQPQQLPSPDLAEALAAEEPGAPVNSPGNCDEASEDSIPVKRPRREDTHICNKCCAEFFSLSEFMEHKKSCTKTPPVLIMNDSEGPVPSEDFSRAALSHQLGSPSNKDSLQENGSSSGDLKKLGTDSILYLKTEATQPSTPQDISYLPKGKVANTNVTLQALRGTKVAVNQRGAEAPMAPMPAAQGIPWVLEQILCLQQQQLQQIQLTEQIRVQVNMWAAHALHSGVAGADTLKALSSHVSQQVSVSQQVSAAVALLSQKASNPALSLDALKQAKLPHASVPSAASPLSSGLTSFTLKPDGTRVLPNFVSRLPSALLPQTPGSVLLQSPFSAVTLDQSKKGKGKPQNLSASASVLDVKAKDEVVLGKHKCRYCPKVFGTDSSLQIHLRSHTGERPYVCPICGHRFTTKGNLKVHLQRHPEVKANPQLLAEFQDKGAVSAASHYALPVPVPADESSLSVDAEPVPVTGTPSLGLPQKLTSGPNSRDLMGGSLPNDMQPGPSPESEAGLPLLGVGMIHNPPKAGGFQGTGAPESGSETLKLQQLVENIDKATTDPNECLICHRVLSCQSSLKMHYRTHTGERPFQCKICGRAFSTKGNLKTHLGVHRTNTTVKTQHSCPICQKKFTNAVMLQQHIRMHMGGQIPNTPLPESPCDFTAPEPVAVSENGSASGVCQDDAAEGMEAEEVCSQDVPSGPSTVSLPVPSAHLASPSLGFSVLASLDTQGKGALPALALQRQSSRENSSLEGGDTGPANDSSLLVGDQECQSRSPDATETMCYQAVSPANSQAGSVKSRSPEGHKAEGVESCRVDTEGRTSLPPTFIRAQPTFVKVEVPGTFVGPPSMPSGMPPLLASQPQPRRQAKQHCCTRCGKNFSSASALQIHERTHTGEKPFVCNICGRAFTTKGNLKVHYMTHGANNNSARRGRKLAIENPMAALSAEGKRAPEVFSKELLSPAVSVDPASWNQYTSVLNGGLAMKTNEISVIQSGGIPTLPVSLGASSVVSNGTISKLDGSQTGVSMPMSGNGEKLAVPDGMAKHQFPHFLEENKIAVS
UniProt Q6XZL8: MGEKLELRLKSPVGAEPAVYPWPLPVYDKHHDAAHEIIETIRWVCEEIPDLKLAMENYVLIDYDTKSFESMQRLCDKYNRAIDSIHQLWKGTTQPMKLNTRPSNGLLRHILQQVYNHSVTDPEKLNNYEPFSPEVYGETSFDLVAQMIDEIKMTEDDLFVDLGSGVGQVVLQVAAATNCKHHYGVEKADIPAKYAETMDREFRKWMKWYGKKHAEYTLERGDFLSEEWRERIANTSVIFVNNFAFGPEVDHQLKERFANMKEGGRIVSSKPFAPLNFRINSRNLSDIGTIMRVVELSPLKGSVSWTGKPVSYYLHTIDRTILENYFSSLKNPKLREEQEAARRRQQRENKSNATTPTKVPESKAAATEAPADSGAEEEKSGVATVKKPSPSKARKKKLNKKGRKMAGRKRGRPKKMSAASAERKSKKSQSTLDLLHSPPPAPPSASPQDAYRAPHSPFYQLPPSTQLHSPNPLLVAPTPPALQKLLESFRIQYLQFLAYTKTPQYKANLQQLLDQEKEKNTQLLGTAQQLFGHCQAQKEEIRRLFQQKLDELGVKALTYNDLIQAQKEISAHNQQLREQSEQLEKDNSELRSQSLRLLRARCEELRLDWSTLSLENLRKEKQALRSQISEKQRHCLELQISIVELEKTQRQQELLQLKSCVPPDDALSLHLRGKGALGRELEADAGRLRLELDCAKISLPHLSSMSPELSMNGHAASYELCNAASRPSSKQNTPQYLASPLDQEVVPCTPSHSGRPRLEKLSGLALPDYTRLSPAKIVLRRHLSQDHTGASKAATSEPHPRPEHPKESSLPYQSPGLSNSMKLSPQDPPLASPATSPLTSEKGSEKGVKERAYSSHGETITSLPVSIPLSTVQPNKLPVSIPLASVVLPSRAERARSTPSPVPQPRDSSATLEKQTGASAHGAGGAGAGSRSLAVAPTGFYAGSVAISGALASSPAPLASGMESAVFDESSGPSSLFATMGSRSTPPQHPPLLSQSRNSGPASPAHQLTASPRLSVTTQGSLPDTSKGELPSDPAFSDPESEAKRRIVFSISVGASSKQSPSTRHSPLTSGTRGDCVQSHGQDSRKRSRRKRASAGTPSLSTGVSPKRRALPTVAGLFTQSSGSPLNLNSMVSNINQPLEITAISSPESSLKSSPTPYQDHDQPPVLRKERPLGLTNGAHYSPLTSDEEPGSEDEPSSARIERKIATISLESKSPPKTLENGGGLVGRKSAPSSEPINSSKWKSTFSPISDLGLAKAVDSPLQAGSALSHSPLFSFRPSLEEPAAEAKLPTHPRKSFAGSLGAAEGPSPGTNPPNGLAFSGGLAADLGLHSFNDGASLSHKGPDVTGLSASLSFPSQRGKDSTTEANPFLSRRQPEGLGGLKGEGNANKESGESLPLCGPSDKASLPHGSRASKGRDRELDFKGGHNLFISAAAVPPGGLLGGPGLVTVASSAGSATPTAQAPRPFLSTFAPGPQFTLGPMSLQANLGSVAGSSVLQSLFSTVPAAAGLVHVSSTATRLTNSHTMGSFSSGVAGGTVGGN

Test [2] concerns the target SALL4, endogenous in MLL-AF9-transformed mouse Lin- bone marrow cells (mouse (endogenous in MLL-AF9-transformed Lin- BM cells)) (UniProt Q8BX22). Briefly: co-IP; MLL-AF9-transformed mouse Lin- BM cells, endogenous proteins, with or without 4-OHT (Sall4 deletion); anti-Sall4 antibody for IP; Western blot.

No constants are given. Whether binding was seen depends on the method and setting. Binding seen in cells or lysates may run through a third protein. Some binding calls cover weakened binding; strength is not graded here. For part of these data: Where a sequence is shown, tags or fusion partners need not be part of it.

“HA-tagged SALL4A isoform (from UniProt Q9UJQ4-1 1-1053)”: the binding result in test [1] is reported as “binds”.

Regarding “DOT1L, endogenous in MLL-AF9-transformed mouse Lin- bone marrow cells (from UniProt Q6XZL8 1-1540) (enzyme)”, the binding result in test [2] was “binds”.

B1: HA-tagged SALL4B isoform (protein, UniProt Q9UJQ4-2 1-616)
chain: MSRRKQAKPQHINSEEDQGEQQPQQQTPEFADAAPAAPAAGELGAPVNHPGNDEVASEDEATVKRLRREETHVCEKCCAEFFSISEFLEHKKNCTKNPPVLIMNDSEGPVPSEDFSGAVLSHQPTSPGSKDCHRENGGSSEDMKEKPDAESVVYLKTETALPPTPQDISYLAKGKVANTNVTLQALRGTKVAVNQRSADALPAPVPGANSIPWVLEQILCLQQQQLQQIQLTEQIRIQVNMWASHALHSSGAGADTLKTLGSHMSQQVSAAVALLSQKAGSQGLSLDALKQAKLPHANIPSATSSLSPGLAPFTLKPDGTRVLPNVMSRLPSALLPQAPGSVLFQSPFSTVALDTSKKGKGKPPNISAVDVKPKDEAALYKHKCRSSLPSTFIRAPPTYVKVEVPGTFVGPSTLSPGMTPLLAAQPRRQAKQHGCTRCGKNFSSASALQIHERTHTGEKPFVCNICGRAFTTKGNLKVHYMTHGANNNSARRGRKLAIENTMALLGTDGKRVSEIFPKEILAPSVNVDPVVWNQYTSMLNGGLAVKTNEISVIQSGGVPTLPVSLGATSVVNNATVSKMDGSQSGISADVEKPSATDGVPKHQFPHFLEENKIAVS
As to B1, the binding result in test [1] is listed as “binds”.

The values above are taken from article PMC5627455.
